Test results: the supplement of paper PMC10849652
The list shows a part of the results.

Sequences of proteins named here, by UniProt entry; tags and fusion partners are left off. A change or cut given only in a name is not applied to a line headed by its entry.
UniProt Q96DH6: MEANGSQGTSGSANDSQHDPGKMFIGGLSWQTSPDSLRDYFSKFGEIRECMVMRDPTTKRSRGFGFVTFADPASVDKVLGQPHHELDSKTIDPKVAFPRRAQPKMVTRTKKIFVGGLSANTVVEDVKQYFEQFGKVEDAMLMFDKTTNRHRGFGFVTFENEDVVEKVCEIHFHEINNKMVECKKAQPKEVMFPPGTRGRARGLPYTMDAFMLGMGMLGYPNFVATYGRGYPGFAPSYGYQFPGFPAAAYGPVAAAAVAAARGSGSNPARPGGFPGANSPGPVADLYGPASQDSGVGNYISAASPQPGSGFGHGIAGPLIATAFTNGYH
UniProt Q9Y217: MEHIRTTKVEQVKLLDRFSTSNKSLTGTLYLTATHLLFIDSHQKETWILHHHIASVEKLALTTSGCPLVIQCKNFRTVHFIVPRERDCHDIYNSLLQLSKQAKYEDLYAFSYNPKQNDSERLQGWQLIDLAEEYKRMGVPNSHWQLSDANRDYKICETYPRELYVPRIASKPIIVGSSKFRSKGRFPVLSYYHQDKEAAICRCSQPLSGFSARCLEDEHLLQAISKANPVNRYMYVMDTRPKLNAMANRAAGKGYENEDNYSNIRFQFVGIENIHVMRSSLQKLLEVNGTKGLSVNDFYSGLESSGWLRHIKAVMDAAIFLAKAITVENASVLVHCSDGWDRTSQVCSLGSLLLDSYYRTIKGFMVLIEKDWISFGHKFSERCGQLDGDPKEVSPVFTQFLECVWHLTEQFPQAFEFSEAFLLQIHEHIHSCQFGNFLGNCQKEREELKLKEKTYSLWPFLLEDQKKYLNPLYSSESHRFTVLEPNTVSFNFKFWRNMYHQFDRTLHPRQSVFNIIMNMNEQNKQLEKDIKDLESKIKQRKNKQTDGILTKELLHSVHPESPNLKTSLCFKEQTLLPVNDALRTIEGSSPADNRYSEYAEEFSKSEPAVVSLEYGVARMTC
UniProt Q9UGC7: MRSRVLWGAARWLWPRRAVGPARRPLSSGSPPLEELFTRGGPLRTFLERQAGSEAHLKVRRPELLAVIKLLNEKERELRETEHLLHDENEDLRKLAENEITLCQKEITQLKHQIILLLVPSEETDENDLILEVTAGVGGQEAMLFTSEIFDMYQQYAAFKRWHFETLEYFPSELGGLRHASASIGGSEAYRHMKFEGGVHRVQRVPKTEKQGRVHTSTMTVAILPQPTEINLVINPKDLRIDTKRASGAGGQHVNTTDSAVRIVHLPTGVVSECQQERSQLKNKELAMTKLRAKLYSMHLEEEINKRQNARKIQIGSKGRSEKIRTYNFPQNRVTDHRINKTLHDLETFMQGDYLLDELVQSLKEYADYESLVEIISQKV
UniProt Q9NYA4: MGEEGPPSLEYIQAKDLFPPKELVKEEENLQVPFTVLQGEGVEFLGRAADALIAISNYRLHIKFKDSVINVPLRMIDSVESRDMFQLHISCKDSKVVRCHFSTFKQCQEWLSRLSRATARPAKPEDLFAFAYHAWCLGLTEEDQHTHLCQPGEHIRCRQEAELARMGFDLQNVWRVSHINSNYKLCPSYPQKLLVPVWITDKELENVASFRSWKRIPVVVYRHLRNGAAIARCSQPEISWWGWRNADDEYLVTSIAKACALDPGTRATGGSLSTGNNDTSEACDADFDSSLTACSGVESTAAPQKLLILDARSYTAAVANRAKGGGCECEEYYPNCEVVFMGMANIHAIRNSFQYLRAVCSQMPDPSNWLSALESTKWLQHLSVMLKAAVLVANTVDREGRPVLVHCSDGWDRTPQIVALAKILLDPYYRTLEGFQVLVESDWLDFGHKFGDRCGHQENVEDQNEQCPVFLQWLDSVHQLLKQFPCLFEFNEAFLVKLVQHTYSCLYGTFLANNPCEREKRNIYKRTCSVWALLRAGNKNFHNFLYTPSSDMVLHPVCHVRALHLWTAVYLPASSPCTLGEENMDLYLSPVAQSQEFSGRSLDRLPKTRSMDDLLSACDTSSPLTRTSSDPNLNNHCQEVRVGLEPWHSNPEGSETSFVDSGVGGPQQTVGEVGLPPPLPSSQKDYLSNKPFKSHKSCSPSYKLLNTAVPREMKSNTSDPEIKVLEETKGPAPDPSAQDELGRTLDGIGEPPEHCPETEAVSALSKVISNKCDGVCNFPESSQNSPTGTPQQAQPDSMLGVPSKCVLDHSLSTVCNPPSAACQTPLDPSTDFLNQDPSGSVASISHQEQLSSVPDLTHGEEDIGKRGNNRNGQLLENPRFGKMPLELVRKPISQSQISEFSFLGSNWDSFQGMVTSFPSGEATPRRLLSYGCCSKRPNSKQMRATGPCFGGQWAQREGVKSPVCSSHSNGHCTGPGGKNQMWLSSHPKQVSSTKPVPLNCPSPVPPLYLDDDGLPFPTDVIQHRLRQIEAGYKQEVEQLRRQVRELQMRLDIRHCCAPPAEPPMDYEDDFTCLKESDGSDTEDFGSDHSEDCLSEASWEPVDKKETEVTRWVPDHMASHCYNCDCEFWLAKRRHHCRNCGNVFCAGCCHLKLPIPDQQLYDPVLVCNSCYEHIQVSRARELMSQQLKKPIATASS
UniProt P03905, whole entry, looked up: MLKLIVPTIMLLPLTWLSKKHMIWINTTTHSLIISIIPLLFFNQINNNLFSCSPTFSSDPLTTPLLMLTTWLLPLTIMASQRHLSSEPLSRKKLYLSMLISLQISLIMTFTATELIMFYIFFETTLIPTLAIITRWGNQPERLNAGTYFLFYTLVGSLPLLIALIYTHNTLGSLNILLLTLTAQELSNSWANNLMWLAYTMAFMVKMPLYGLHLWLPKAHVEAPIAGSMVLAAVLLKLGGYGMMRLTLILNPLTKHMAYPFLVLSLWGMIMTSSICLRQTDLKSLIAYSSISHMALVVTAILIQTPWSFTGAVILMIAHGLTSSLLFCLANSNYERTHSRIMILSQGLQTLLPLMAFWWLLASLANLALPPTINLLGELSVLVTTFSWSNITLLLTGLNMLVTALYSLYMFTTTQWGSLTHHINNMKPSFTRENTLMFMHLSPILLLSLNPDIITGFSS
UniProt Q9BUK6: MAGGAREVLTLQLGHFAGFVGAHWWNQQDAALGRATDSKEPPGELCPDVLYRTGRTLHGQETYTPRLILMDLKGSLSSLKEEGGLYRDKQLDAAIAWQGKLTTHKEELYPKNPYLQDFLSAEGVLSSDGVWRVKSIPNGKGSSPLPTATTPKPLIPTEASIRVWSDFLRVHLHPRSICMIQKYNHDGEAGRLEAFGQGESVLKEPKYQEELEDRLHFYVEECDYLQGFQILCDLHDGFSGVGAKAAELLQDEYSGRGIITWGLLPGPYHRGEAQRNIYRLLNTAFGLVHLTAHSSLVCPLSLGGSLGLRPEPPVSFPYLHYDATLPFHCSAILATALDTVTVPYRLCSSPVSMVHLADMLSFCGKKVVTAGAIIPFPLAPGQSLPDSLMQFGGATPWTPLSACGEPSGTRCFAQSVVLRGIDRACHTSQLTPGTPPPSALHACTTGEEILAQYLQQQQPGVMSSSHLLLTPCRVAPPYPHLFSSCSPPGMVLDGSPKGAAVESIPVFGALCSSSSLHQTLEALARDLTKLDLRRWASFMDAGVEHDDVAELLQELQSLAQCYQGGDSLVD
UniProt Q68DK7: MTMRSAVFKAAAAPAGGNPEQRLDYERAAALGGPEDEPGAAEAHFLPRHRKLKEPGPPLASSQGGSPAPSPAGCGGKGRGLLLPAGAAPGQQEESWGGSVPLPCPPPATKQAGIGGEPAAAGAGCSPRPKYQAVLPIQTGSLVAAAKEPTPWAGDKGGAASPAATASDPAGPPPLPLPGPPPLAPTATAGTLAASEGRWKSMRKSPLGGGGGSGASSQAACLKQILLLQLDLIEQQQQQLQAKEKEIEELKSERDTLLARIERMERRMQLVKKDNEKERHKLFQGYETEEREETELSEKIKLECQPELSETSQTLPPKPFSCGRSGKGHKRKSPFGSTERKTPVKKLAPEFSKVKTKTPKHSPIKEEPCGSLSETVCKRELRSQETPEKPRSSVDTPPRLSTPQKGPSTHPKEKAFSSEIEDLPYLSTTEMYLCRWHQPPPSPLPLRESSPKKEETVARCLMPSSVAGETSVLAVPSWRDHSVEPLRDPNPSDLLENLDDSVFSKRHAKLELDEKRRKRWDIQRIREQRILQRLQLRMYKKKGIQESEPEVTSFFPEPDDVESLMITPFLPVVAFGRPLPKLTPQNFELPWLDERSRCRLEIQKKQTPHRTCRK
UniProt Q96QG7: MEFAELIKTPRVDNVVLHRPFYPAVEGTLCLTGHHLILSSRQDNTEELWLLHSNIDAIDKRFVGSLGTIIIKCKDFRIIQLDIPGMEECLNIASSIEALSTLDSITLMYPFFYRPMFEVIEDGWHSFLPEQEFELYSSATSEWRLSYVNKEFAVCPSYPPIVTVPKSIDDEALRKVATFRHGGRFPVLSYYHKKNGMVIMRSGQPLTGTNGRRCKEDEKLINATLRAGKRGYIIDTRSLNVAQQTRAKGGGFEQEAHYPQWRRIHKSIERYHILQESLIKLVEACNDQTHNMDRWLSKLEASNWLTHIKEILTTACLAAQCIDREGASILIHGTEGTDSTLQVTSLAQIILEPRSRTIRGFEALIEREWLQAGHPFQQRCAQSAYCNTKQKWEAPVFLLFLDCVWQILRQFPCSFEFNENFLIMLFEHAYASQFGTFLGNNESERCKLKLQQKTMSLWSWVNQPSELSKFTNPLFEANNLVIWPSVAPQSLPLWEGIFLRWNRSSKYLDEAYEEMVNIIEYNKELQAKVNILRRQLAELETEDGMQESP
UniProt Q13614, whole entry, looked up: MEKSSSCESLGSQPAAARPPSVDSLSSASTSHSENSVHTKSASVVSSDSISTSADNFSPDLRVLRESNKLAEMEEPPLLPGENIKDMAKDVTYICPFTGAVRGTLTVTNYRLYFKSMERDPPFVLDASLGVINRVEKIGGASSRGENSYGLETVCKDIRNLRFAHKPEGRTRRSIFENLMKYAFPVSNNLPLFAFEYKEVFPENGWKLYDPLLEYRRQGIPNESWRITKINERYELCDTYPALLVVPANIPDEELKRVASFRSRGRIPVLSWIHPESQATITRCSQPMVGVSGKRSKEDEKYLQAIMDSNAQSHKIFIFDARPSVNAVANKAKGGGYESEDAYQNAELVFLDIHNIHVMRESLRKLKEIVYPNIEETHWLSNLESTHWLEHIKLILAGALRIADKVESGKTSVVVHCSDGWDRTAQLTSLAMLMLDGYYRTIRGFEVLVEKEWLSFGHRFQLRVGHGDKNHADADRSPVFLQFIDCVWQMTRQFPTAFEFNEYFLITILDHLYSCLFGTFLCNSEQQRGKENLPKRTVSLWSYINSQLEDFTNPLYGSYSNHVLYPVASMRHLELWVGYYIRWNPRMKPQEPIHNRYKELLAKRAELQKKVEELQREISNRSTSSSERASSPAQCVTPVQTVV
MTHFD1, A0A384N5Y3, UniProt A0A384N5Y3, whole entry, looked up: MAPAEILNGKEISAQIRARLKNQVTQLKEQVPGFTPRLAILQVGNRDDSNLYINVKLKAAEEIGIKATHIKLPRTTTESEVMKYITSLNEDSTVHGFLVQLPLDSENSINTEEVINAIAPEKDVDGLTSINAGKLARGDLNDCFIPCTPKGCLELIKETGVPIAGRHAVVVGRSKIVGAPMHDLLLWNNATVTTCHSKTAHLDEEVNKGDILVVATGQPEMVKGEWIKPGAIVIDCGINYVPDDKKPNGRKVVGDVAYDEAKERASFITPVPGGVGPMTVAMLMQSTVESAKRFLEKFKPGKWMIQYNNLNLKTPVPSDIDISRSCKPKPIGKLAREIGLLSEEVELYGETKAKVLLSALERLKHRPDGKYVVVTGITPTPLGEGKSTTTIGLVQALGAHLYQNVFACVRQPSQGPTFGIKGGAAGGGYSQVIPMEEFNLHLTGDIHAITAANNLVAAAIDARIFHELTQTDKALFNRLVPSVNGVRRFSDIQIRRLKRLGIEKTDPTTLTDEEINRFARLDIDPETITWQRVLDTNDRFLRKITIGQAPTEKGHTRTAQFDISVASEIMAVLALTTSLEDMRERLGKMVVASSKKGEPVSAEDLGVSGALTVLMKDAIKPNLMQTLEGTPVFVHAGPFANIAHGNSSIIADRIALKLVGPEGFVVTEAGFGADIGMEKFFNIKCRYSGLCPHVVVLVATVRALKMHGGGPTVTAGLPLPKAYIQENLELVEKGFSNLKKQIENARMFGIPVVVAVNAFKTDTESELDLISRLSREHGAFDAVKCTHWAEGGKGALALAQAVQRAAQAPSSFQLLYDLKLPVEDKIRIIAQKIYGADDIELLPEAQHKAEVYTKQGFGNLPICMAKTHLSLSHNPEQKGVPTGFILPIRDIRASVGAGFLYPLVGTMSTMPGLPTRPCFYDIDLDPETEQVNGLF

Assays:
Test in all cases: log2 fold change, soluble protein after heating vs DMSO (PISA); higher = thermal stabilisation; K562 lysate, 10 uM; active = over 0.2 and 3.5 SD of the protein, either way, in both replicates (recomputed)
nilotinib = compound: Cc1cn(-c2cc(NC(=O)c3ccc(C)c(Nc4nccc(-c5cccnc5)n4)c3)cc(C(F)(F)F)c2)cn1 [nilotinib]
Outline: (§1)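 The values are log-two fold changes in thermal stability compared with solvent controls and come from duplicates. They were obtained by TMTpro 16plex LC-MS/MS, with channel sums equalised, on the supernatant after 21,000xg for 90 min. That supernatant came from crude K562 extract at 1 mg/mL protein treated with 10 μM compound for 30 min, heated for 3 min across 48°C-58°C, pooled and brought to 0.5% NP-40 at 4°C.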

[1] = compound: Cc1nc(Nc2n[nH]c3c2CN(C(=O)N[C@H](CN(C)C)c2ccccc2)C3(C)C)c2sccc2n1
Outline: as §1

dasatinib = compound: Cc1nc(Nc2ncc(C(=O)Nc3c(C)cccc3Cl)s2)cc(N2CCN(CCO)CC2)n1 [dasatinib]
Outline: as §1

[2] = compound: Cc1ncc(-c2ccnc(Nc3ccc(S(C)(=O)=O)cc3)n2)n1C(C)C
Outline: as §1

[3] = compound: Cn1cc(-c2ccc3c(c2)CCN3C(=O)Cc2cccc(C(F)(F)F)c2)c2c(N)ncnc21
Outline: as §1

quisinostat = compound: Cn1cc(CNCC2CCN(c3ncc(C(=O)NO)cn3)CC2)c2ccccc21 [quisinostat]
Outline: as §1

tipifarnib = compound: Cn1cncc1[C@@](N)(c1ccc(Cl)cc1)c1ccc2c(c1)c(-c1cccc(Cl)c1)cc(=O)n2C [tipifarnib]
Outline: as §1

[4] = compound: NC(=O)Nc1cc(-c2cccc(F)c2)sc1C(=O)N[C@H]1CCCNC1
Outline: as §1

[5] = compound: NC(=O)c1cnc(N[C@@H]2CCCC[C@@H]2N)nc1Nc1cccc(-n2nccn2)c1
Outline: as §1

[6] = compound: NC1(c2ccc(-c3nc4ccn5c(=O)[nH]nc5c4cc3-c3ccccc3)cc2)CCC1
Outline: as §1

[7] = compound: NCC(=O)Nc1ccc(-n2nc(C(F)(F)F)cc2-c2ccc3c(ccc4ccccc43)c2)cc1
Outline: as §1

vorinostat = compound: O=C(CCCCCCC(=O)Nc1ccccc1)NO [vorinostat]
Outline: as §1

silmitasertib = compound: O=C(O)c1ccc2c(c1)nc(Nc1cccc(Cl)c1)c1ccncc12 [silmitasertib]
Outline: as §1

[8] = compound: O=C1NC(=O)C(c2cnc3ccccn23)=C1c1cn2c3c(cc(F)cc13)CN(C(=O)N1CCCCC1)CC2
Outline: as §1

entospletinib = compound: c1cn2cc(-c3ccc4cn[nH]c4c3)nc(Nc3ccc(N4CCOCC4)cc3)c2n1 [entospletinib]
Outline: as §1

Target | log2 fold change (nilotinib) | log2 fold change [1] | log2 fold change (dasatinib) | log2 fold change [2] | log2 fold change [3] | log2 fold change (quisinostat) | log2 fold change (tipifarnib) | log2 fold change [4] | log2 fold change [5] | log2 fold change [6] | log2 fold change [7] | log2 fold change (vorinostat) | log2 fold change (silmitasertib) | log2 fold change [8] | log2 fold change (entospletinib)
MSI2 (UniProt Q96DH6) | inactive: -0.089 | inactive: 0.011 | inactive: 0.01 | inactive: 0.009 | inactive: 0.049 | inactive: 0.023 | inactive: -0.057 | inactive: 0.029 | inactive: 0.028 | inactive: -0.016 | inactive: 0.053 | inactive: -0.046 | inactive: -0.021 | inactive: -0.052 | inactive: 0.033
MTMR6 (UniProt Q9Y217) | inactive: -0.04 | inactive: 0.063 | inactive: -0.036 | inactive: -0.026 | inactive: -0.076 | inactive: -0.116 | inactive: -0.024 | inactive: 0.086 | inactive: -0.007 | inactive: -0.032 | inactive: -0.018 | active: -0.276 | inactive: 0.027 | inactive: -0.027 | inactive: 0.003
MRPL50 (UniProt Q8N5N7) | inactive: 0.001 | inactive: 0.033 | inactive: -0.027 | inactive: 0.106 | inactive: 0.057 | inactive: 0.035 | inactive: 0.038 | inactive: -0.044 | inactive: -0.026 | inactive: -0.022 | inactive: -0.035 | inactive: 0.068 | inactive: -0.043 | inactive: 0.047 | inactive: -0.039
MTRF1L (UniProt Q9UGC7) | inactive: 0.017 | inactive: 0.008 | inactive: 0.038 | inactive: -0.079 | inactive: -0.016 | inactive: -0.012 | inactive: 0.038 | inactive: -0.02 | inactive: 0.044 | inactive: -0.061 | inactive: 0.078 | inactive: 0.126 | inactive: -0.027 | inactive: 0.014 | inactive: 0.033
MRPS18A isoform 2 (UniProt Q9NVS2) | inactive: 0.031 | inactive: -0.022 | inactive: -0.054 | inactive: -0.033 | inactive: 0.006 | inactive: -0.012 | inactive: -0.026 | inactive: 0.036 | inactive: 0.014 | inactive: -0.065 | inactive: 0.008 | inactive: 0.021 | inactive: 0.048 | inactive: 0.019 | inactive: -0.052
MTMR4 (UniProt Q9NYA4) | inactive: -0.068 | inactive: 0.025 | inactive: -0.051 | inactive: -0.106 | inactive: 0.017 | inactive: 0.027 | inactive: 0.091 | inactive: 0.131 | inactive: -0.025 | inactive: 0.146 | inactive: -0.291 | inactive: 0.016 | inactive: -0.115 | inactive: 0.054 | 
MRPL47 (UniProt Q9HD33) | inactive: 0.051 | inactive: 0.046 | inactive: -0.062 | inactive: -0.057 | inactive: 0.009 | inactive: 0.054 | inactive: -0.052 | inactive: 0.038 | inactive: 0.044 | inactive: -0.054 | inactive: -0.048 | inactive: -0.028 | inactive: 0.06 | inactive: -0.048 | inactive: -0.007
MT-ND4 (UniProt P03905) | inactive: 0.019 | inactive: -0.039 | inactive: -0.13 | inactive: 0.106 | inactive: -0.031 | inactive: -0.145 | inactive: -0.012 | inactive: 0.036 | inactive: 0.012 | inactive: -0.017 | inactive: -0.028 | inactive: 0.12 | inactive: 0.037 | inactive: 0.112 | inactive: -0.039
MSTO1 (UniProt Q9BUK6) | inactive: -0.009 | inactive: 0.031 | inactive: 0.019 | inactive: -0.053 | inactive: 0.005 | inactive: -0.054 | inactive: -0.006 | inactive: 0.008 | inactive: -0.02 | inactive: 0.054 | inactive: 0.017 | inactive: -0.089 | inactive: 0.09 | inactive: 0.021 | inactive: -0.004
MRPS7 (UniProt Q9Y2R9) | inactive: 0.005 | inactive: -0.023 | inactive: -0.013 | inactive: 0.037 | inactive: 0.047 | inactive: 0.044 | inactive: 0.037 | inactive: 0.002 | inactive: 0 | inactive: -0.019 | inactive: 0.002 | inactive: -0.031 | inactive: 0.021 | inactive: 0.029 | inactive: 0.008
MSL1 (UniProt Q68DK7) | inactive: 0.038 | inactive: -0.098 | inactive: 0.058 | inactive: 0.005 | inactive: 0.004 | inactive: -0.208 | inactive: 0.033 | inactive: -0.03 | inactive: 0.012 | inactive: -0.013 | inactive: 0.1 | inactive: 0.162 | inactive: -0.012 | inactive: -0.042 | inactive: -0.058
MRPS27 isoform 2 (UniProt Q92552) | inactive: 0.023 | inactive: -0.026 | inactive: -0.061 | inactive: 0.056 | inactive: 0.023 | inactive: -0.105 | inactive: -0.031 | inactive: 0.047 | inactive: 0.013 | inactive: -0.016 | inactive: 0.046 | inactive: -0.167 | inactive: -0.015 | inactive: 0.02 | inactive: 0.006
MRPS28 (UniProt Q9Y2Q9) | inactive: -0.08 | inactive: 0.048 | inactive: 0.003 | inactive: -0.005 | inactive: -0.014 | inactive: 0.042 | inactive: 0.003 | inactive: -0.002 | inactive: 0.065 | inactive: 0.005 | inactive: -0.024 | inactive: 0.005 | inactive: 0.012 | inactive: -0.026 | inactive: 0.049
MTMR9 (UniProt Q96QG7) | inactive: -0.031 | inactive: 0 | inactive: -0.081 | inactive: -0.137 | inactive: 0.01 | inactive: -0.017 | inactive: 0.062 | inactive: -0.017 | inactive: 0.005 | inactive: -0.052 | inactive: -0.062 | inactive: -0.13 | inactive: 0.126 | inactive: -0.077 | inactive: -0.038
MRPL49 (UniProt Q13405) | inactive: 0.043 | inactive: -0.052 | inactive: -0.015 | inactive: 0.088 | inactive: 0.045 | inactive: 0.034 | inactive: 0.054 | inactive: -0.016 | inactive: 0.014 | inactive: -0.035 | inactive: 0.003 | inactive: 0.127 | inactive: -0.019 | inactive: 0.02 | inactive: -0.083
MRPS33 (UniProt Q9Y291) | inactive: -0.166 | inactive: 0.004 | inactive: 0.048 | inactive: 0.015 | inactive: 0.097 | inactive: 0.155 | inactive: 0.133 | inactive: -0.024 | inactive: 0.016 | inactive: -0.016 | inactive: 0.034 | inactive: -0.047 | inactive: -0.048 | inactive: -0.061 | inactive: -0.016
MTMR2 (UniProt Q13614) | inactive: 0.001 | inactive: -0.05 | inactive: 0.029 | inactive: -0.067 | inactive: 0.008 | inactive: -0.071 | inactive: -0.003 | inactive: 0.028 | inactive: 0.038 | inactive: 0.012 | inactive: -0.069 | inactive: 0.09 | inactive: -0.015 | inactive: -0.026 | inactive: -0.02
MRTO4 (UniProt Q9UKD2) | inactive: -0.007 | inactive: -0.001 | inactive: 0.022 | inactive: -0.037 | inactive: 0.025 | inactive: 0.101 | inactive: 0.016 | inactive: 0.001 | inactive: -0.041 | inactive: -0.03 | inactive: -0.023 | inactive: 0.102 | inactive: -0.018 | inactive: -0.007 | inactive: 0.018
MTHFD1, A0A384N5Y3 | inactive: 0.005 | inactive: -0.018 | inactive: -0.081 | inactive: -0.008 | inactive: 0.032 | inactive: -0.044 | inactive: -0.02 | inactive: 0.039 | inactive: 0.008 | inactive: -0.017 | inactive: 0.036 | active: -0.243 | inactive: 0.056 | inactive: 0.028 | inactive: 0.026
MRPS10 (UniProt P82664) | inactive: 0.009 | inactive: -0.034 | inactive: -0.004 | inactive: 0.038 | inactive: 0.01 | inactive: -0.034 | inactive: 0 | inactive: -0.011 | inactive: -0.006 | inactive: 0.012 | inactive: 0.041 | inactive: 0.068 | inactive: -0.07 | inactive: 0.002 | inactive: 0.037
MRPS22 (UniProt P82650) | inactive: -0.068 | inactive: 0.001 | inactive: 0.03 | inactive: 0.117 | inactive: 0.062 | inactive: -0.086 | inactive: 0.032 | inactive: 0.054 | inactive: 0.002 | inactive: -0.012 | inactive: 0.046 | inactive: -0.029 | inactive: 0.01 | inactive: -0.04 | inactive: -0.016

Reprinted from the entries so far (two entries):
Target | log2 fold change (nilotinib) | log2 fold change [1] | log2 fold change (dasatinib) | log2 fold change [2] | log2 fold change [3] | log2 fold change (quisinostat) | log2 fold change (tipifarnib) | log2 fold change [4] | log2 fold change [5] | log2 fold change [6] | log2 fold change [7] | log2 fold change (vorinostat) | log2 fold change (silmitasertib) | log2 fold change [8] | log2 fold change (entospletinib)
MRPS27 isoform 2 (UniProt Q92552) | inactive: 0.023 | inactive: -0.026 | inactive: -0.061 | inactive: 0.056 | inactive: 0.023 | inactive: -0.105 | inactive: -0.031 | inactive: 0.047 | inactive: 0.013 | inactive: -0.016 | inactive: 0.046 | inactive: -0.167 | inactive: -0.015 | inactive: 0.02 | inactive: 0.006
MRPS28 (UniProt Q9Y2Q9) | inactive: -0.08 | inactive: 0.048 | inactive: 0.003 | inactive: -0.005 | inactive: -0.014 | inactive: 0.042 | inactive: 0.003 | inactive: -0.002 | inactive: 0.065 | inactive: 0.005 | inactive: -0.024 | inactive: 0.005 | inactive: 0.012 | inactive: -0.026 | inactive: 0.049
